Data: patent US20240376151A1, “STAPLED PEPTIDES AND METHODS THEREOF” (FOG PHARMACEUTICALS, INC., priority 2022, published 2024)
Results are given in words; binding and its absence hold for the method and conditions named. Some entries that bind do so weakly or less than the wild type.

The chains behind the UniProt entries cited, without tags or fusion partners. Where a name states a change or a piece, a line headed by the entry shows the natural chain unless it says otherwise.
UniProt Q9NZQ7: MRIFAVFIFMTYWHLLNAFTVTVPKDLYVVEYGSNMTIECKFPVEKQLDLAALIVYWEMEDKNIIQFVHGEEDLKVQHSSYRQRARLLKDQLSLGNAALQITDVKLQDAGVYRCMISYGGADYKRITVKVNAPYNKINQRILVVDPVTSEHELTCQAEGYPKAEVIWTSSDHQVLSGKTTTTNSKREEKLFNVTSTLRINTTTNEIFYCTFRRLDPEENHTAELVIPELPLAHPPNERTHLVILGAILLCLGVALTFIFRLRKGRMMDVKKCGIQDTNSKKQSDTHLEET

Molecular target: human PD-L1 (residues 18-239) with C-terminal TEV-10xHis-Avi tag, biotinylated (human) (UniProt Q9NZQ7)
Assay: analytical SEC and TR-FRET (biotinylated PD-L1 + Alexa Fluor 488 PD-L1); dimer only with FP28132 (or BMS-1001) present

- binding: binds
Substance: human PD-L1 (residues 18-239) with C-terminal TEV-10xHis-Avi tag, biotinylated (from UniProt Q9NZQ7 18-239) (receptor)
